# Some results were stated once for a whole list of compounds, not compound by compound.
# Test system: DENV replicon
# Type: cell-based, Dengue virus (DENV)
# Settings: 3 μM nucleobase dose
row,SMILES,inhibitory activity of nucleobase alone
1,"NC(=O)c1nc[nH]n1 [Compound 1a, 1H-1,2,4-triazole-3-carboxamide]",20-30%
2,"NC(=O)c1nc[nH]c1O [Compound 2a, 5-hydroxy-1H-imidazole-4-carboxamide]",20-30%
